The supplement of paper PMC8728848
Some of the results follow.

Legend:
Experiment in all cases: glycan array binding signal (z-score within array); higher = stronger binding
Conditions in all cases: glycan notation: IUPAC condensed, linker removed
Gal3S(b1-4)Glc = target: Gal3S(b1-4)Glc
Outline: (§1)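 The binding signal is a Z-score computed within each array. Data were drawn from 3228 arrays in the Consortium for Functional Glycomics database, restricted to those with a known protein sequence. Scores were averaged over arrays of the same protein sequence at different concentrations or buffers, and over linkers, and negative values can be taken as non-binding.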

Gal3S(b1-4)Glc6S = target: Gal3S(b1-4)Glc6S
Outline: as §1

Gal3S(b1-4)GlcNAc = target: Gal3S(b1-4)GlcNAc
Outline: as §1

[1] = target: Gal3S(b1-4)[Fuc(a1-3)]Glc6S
Outline: as §1

[2] = target: Gal3S(b1-4)[Fuc(a1-3)]GlcNAc
Outline: as §1

[3] = target: Gal3S(b1-4)[Fuc(a1-3)]GlcNAc6S
Outline: as §1

Gal3S4S(b1-4)GlcNAc = target: Gal3S4S(b1-4)GlcNAc
Outline: as §1

Gal3S6S(b1-4)GlcNAc = target: Gal3S6S(b1-4)GlcNAc
Outline: as §1

Gal3S6S(b1-4)GlcNAc6S = target: Gal3S6S(b1-4)GlcNAc6S
Outline: as §1

Gal4S(b1-4)GlcNAc = target: Gal4S(b1-4)GlcNAc
Outline: as §1

Gal4S6S(b1-4)GlcNAc = target: Gal4S6S(b1-4)GlcNAc
Outline: as §1

Gal6P(b1-4)GlcNAc = target: Gal6P(b1-4)GlcNAc
Outline: as §1

Gal6S(b1-3)GlcNAc = target: Gal6S(b1-3)GlcNAc
Outline: as §1

Gal6S(b1-3)GlcNAc6S = target: Gal6S(b1-3)GlcNAc6S
Outline: as §1

Gal6S(b1-4)Glc = target: Gal6S(b1-4)Glc
Outline: as §1

Gal6S(b1-4)Glc6S = target: Gal6S(b1-4)Glc6S
Outline: as §1

Gal6S(b1-4)GlcNAc = target: Gal6S(b1-4)GlcNAc
Outline: as §1

Gal6S(b1-4)GlcNAc6S = target: Gal6S(b1-4)GlcNAc6S
Outline: as §1

GalNAc(a1-3)Gal = target: GalNAc(a1-3)Gal
Outline: as §1

GalNAc(a1-3)GalNAc = target: GalNAc(a1-3)GalNAc
Outline: as §1

[4] = target: GalNAc(a1-3)GalNAc(b1-3)Gal(a1-4)Gal(b1-4)Glc
Outline: as §1

[5] = target: GalNAc(a1-3)GalNAc(b1-3)Gal(a1-4)Gal(b1-4)GlcNAc
Outline: as §1

GalNAc(b1-3)Gal = target: GalNAc(b1-3)Gal
Outline: as §1

[6] = target: GalNAc(b1-3)Gal(a1-4)Gal(b1-4)GlcNAc
Outline: as §1

[7] = target: GalNAc(b1-3)Gal(a1-4)Gal(b1-4)GlcNAc(b1-3)Gal(b1-4)Glc
Outline: as §1

[8] = target: GalNAc(b1-3)Gal(a1-6)Gal(b1-4)Glc
Outline: as §1

GalNAc(b1-3)GalNAc = target: GalNAc(b1-3)GalNAc
Outline: as §1

GalNAc(b1-3)GlcNAc = target: GalNAc(b1-3)GlcNAc
Outline: as §1

GalNAc(b1-4)Gal(b1-4)Glc = target: GalNAc(b1-4)Gal(b1-4)Glc
Outline: as §1

GalNAc(b1-4)GlcNAc = target: GalNAc(b1-4)GlcNAc
Outline: as §1

[9] = target: GalNAc(b1-4)GlcNAc(b1-2)Man
Outline: as §1

[10] = target: GalNAc(b1-4)GlcNAc(b1-2)Man(a1-3)[GalNAc(b1-4)GlcNAc(b1-2)Man(a1-6)]Man(b1-4)GlcNAc(b1-4)GlcNAc
Outline: as §1

[11] = target: GalNAc(b1-4)GlcNAc(b1-3)GalNAc(b1-4)GlcNAc
Outline: as §1

GalNAc(b1-4)GlcNAc6S = target: GalNAc(b1-4)GlcNAc6S
Outline: as §1

GalNAc(b1-6)GalNAc = target: GalNAc(b1-6)GalNAc
Outline: as §1

GalNAc3S(b1-4)GlcNAc = target: GalNAc3S(b1-4)GlcNAc
Outline: as §1

GalNAc3S(b1-4)GlcNAc3S = target: GalNAc3S(b1-4)GlcNAc3S
Outline: as §1

B1: PX9961W-pdi-543-27-543 (Parabacteroides distasonis) (protein)
chain: EGNATTTSYFLNDQQAIDAIDGLYERFHQEGCYGRELFWEQGAACDIVWGRTRGYNSLATLAYTGDESPLRDVFSRMYSTMSRANWIIQELVKKEKGTTLTAVEKRSLGEAYFSRGWAHYLIAYRYGTDKQGVPFVRYEDFPDDYDNSIPPQQATVMDNYKLIIEDMDKAIAYLPIFESYDADNRGRAHQAAAVAFKAKTYAYWATWDATQWNNVIEMVNQLENNYNRDLAPTFAELFSSDLKDYWNAEYLWTIPSIGGALPGGTEFPGIILENKGWGKYNGWGQMKPSYDIYEEMAKDGKGNDRLVRSILEYNQEFPFFGETRKFWSTSDLEAGFMINKYMDAFKYSDPVGEGAVSANGDWPTVRVNFPIIRFAEMLLFRAEAYLMTGQADKATADINRIRLRSNLTPLTGTATMKDLYHERRCELAFEFTDHLFDLKRWNRSSNADIKTLADKELNAHPRIRRYEDRANPESAFTIIGYEDYTNKNAYQAHMMVFPYPSEEITKSNGQLKQNEGY
Gal3S(b1-4)Glc
  glycan array binding signal (z-score): 0.315
Gal3S(b1-4)Glc6S
  glycan array binding signal (z-score): 0.787
Gal3S(b1-4)GlcNAc
  glycan array binding signal (z-score): 0.114
[1]
  glycan array binding signal (z-score): 1.71
[2]
  glycan array binding signal (z-score): 0.558
[3]
  glycan array binding signal (z-score): -0.111
Gal3S4S(b1-4)GlcNAc
  glycan array binding signal (z-score): 0.062
Gal3S6S(b1-4)GlcNAc
  glycan array binding signal (z-score): -0.311
Gal3S6S(b1-4)GlcNAc6S
  glycan array binding signal (z-score): 0.158
Gal4S(b1-4)GlcNAc
  glycan array binding signal (z-score): -0.282
Gal4S6S(b1-4)GlcNAc
  glycan array binding signal (z-score): -0.35
Gal6P(b1-4)GlcNAc
  glycan array binding signal (z-score): -0.969
Gal6S(b1-3)GlcNAc
  glycan array binding signal (z-score): -1.13
Gal6S(b1-3)GlcNAc6S
  glycan array binding signal (z-score): 0.139
Gal6S(b1-4)Glc
  glycan array binding signal (z-score): -0.274
Gal6S(b1-4)Glc6S
  glycan array binding signal (z-score): 0.19
Gal6S(b1-4)GlcNAc
  glycan array binding signal (z-score): -0.756
Gal6S(b1-4)GlcNAc6S
  glycan array binding signal (z-score): 0.176
GalNAc(a1-3)Gal
  glycan array binding signal (z-score): -0.723
GalNAc(a1-3)GalNAc
  glycan array binding signal (z-score): -0.183
[4]
  glycan array binding signal (z-score): -0.637
[5]
  glycan array binding signal (z-score): -0.389
GalNAc(b1-3)Gal
  glycan array binding signal (z-score): -0.473
[6]
  glycan array binding signal (z-score): 0.216
[7]
  glycan array binding signal (z-score): -0.656
[8]
  glycan array binding signal (z-score): -0.299
GalNAc(b1-3)GalNAc
  glycan array binding signal (z-score): -0.487
GalNAc(b1-3)GlcNAc
  glycan array binding signal (z-score): -0.383
GalNAc(b1-4)Gal(b1-4)Glc
  glycan array binding signal (z-score): 0.432
GalNAc(b1-4)GlcNAc
  glycan array binding signal (z-score): -0.443
[9]
  glycan array binding signal (z-score): -0.529
[10]
  glycan array binding signal (z-score): 0.441
[11]
  glycan array binding signal (z-score): -0.156
GalNAc(b1-4)GlcNAc6S
  glycan array binding signal (z-score): 0.192
GalNAc(b1-6)GalNAc
  glycan array binding signal (z-score): -0.126
GalNAc3S(b1-4)GlcNAc
  glycan array binding signal (z-score): -0.888
GalNAc3S(b1-4)GlcNAc3S
  glycan array binding signal (z-score): -0.444
